Laboratory results: PubChem BioAssay AID1259405 (NCATS, 2018)

- Screen: 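Knock-downs that lift recombinant protein yield in hamster ovary cells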 (primary screen)
- System: Chinese hamster CHO-K1 ovary cells with stable secreted eGFP expression
- Reagents: single siRNA against mouse genes, 0.8 pmol siRNA per well (2 µl of 400 nM stock)
- Timing: 3 days
- Detection: 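Percent of the per-plate non-targeting control median for intracellular GFP per well by laser scanning cytometry and for cell viability by ATP luminescence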
- Reading the numbers: GFP, % of control: higher = more GFP per well, higher productivity; viability (ATP), % of control: higher = more viable cells (more ATP)
- Call rule: 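a knock-down is called active if GFP reaches 120% or more of non-targeting control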
Here is one part, drawn at random, of about 50,000 deposited reagents. Of all reagents, about 4,000 (8%) got an active call. 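Mouse siRNA library applied to hamster cells; one well for each siRNA.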 Entries without a mark were called inactive. Reagents against one gene are numbered here. Reagent sequences are not shown.

gene knocked down | reagent no. | GFP, % of control | viability (ATP), % of control
Ephb1 | 1 | 94.8 | 102
Mucl1 | 1 | 83.7 | 59.8
Mucl1 | 2 | 91.1 | 98.6
Mucl1 | 3 | 92.4 | 128
Dmbx1 | 1 | 72.9 | 57.2
Dmbx1 | 2 | 70.2 | 64.7
Dmbx1 | 3 | 43.9 | 43.9
Aire | 1 | 55.9 | 62.7
Aire | 2 | 82.5 | 75.5
Pllp | 1 | 107 | 60.5
Pllp | 2 | 57.1 | 74.2
Pllp | 3 | 76.6 | 66.7
Osbpl6 | 1 | 53.9 | 61.2
Osbpl6 | 2 | 61.3 | 68.2
Osbpl6 | 3 | 75.8 | 96.2
Cyct | 1 | 69.3 | 68.3
Cyct | 2 | 122 (active) | 63.6
Cyct | 3 | 92.9 | 84.3
Ints14 | 1 | 103 | 71.5
Ints14 | 2 | 161 (active) | 74.7
Ints14 | 3 | 69.9 | 82.7
Speer1h | 1 | 56.7 | 51.7
Speer1h | 2 | 61.7 | 60
Speer1h | 3 | 99.2 | 55.8
Arf2 | 1 | 57.7 | 46.1
Arf2 | 2 | 58.9 | 39
Arf2 | 3 | 161 (active) | 72.7
1700041G16Rik | 1 | 72.6 | 62.8
1700041G16Rik | 2 | 22.8 | 21.1
1700041G16Rik | 3 | 60 | 80.9
Mxd4 | 1 | 122 (active) | 86.5
Mxd4 | 2 | 79.4 | 77.9
Mxd4 | 3 | 86.5 | 100
Gmpr2 | 1 | 59.9 | 61.3
Gmpr2 | 2 | 74 | 110
Gmpr2 | 3 | 57.4 | 59.3
Hsd17b12 | 1 | 76.1 | 66.8
Hsd17b12 | 2 | 57.4 | 67.9
Hsd17b12 | 3 | 86.2 | 72.3
Abcc9 | 1 | 150 (active) | 69.9
Abcc9 | 2 | 76.4 | 64.8
Abcc9 | 3 | 46.6 | 65.6
Tbc1d20 | 1 | 122 (active) | 72.2
Tbc1d20 | 2 | 74.5 | 42
Tbc1d20 | 3 | 81.6 | 83.2
Dnajc5g | 1 | 70.1 | 86.8
Dnajc5g | 2 | 14.9 | 44.2
Dnajc5g | 3 | 81.9 | 108
Msgn1 | 1 | 136 (active) | 81.2
Msgn1 | 2 | 134 (active) | 64.3
Msgn1 | 3 | 102 | 66.1
Il1b | 1 | 133 (active) | 130
Il1b | 2 | 98.7 | 74.3
Pantr1 | 1 | 83.6 | 59.5
Pantr1 | 2 | 69.3 | 71.9
Pantr1 | 3 | 91.9 | 100
Trim14 | 1 | 90 | 82.8
Trim14 | 2 | 76 | 76.9
Trim14 | 3 | 84.5 | 60.9
H2-Q1 | 1 | 33.3 | 31.5
H2-Q1 | 2 | 59.8 | 70.3
H2-Q1 | 3 | 84 | 79
Timcc | 1 | 92.6 | 87.8
Timcc | 2 | 82.9 | 87.4
Timcc | 3 | 90.6 | 90.3
Myo1g | 1 | 74.7 | 73.6
Myo1g | 2 | 168 (active) | 108
Myo1g | 3 | 54.9 | 58.5
Cdk5r1 | 1 | 66.7 | 75.1
Cdk5r1 | 2 | 88.7 | 122
Vav2 | 1 | 103 | 119
Vav2 | 2 | 82.2 | 68.6
Vav2 | 3 | 87.9 | 59.8
Nek7 | 1 | 53.4 | 70
Tacc3 | 1 | 136 (active) | 110
Tacc3 | 2 | 40 | 91.8
Tacc3 | 3 | 143 (active) | 124
Polb | 1 | 85.9 | 93.1
Polb | 2 | 64.2 | 69.7
Tbp | 1 | 80.3 | 97.2
Tbp | 2 | 49.6 | 33.9
Ccdc85b | 1 | 117 | 51
Ccdc85b | 2 | 104 | 81.7
Ccdc85b | 3 | 82.8 | 71.6
Tmem134 | 1 | 63.9 | 50.5
Tmem134 | 2 | 28 | 41.7
Tmem134 | 3 | 138 (active) | 94.5
Cep170b | 1 | 17.5 | 18.6
Cep170b | 2 | 76.4 | 71.6
Cep170b | 3 | 77.7 | 91.1
Sprr2j-ps | 1 | 80.9 | 46.9
Sprr2j-ps | 2 | 106 | 104
Sprr2j-ps | 3 | 101 | 86.6
Gm11541 | 1 | 41.5 | 72.5
Gm11541 | 2 | 29.8 | 28
Gm11541 | 3 | 92.2 | 84.6
Runx2 | 1 | 65.2 | 72.9
Runx2 | 2 | 68.1 | 75.4
Runx2 | 3 | 93.2 | 84.6
Mcmdc2 | 1 | 54.2 | 52.5
Mcmdc2 | 2 | 68.8 | 92.3
Mcmdc2 | 3 | 91.6 | 107
Pcyt1b | 1 | 114 | 110
Pcyt1b | 2 | 106 | 74.5
Pcyt1b | 3 | 74.8 | 91.1
Eno3 | 1 | 255 (active) | 107
Eno3 | 2 | 72.1 | 85.4
Eno3 | 3 | 76 | 57.7

Records listed so far whose gene name starts with R or r:
gene knocked down | reagent no. | GFP, % of control | viability (ATP), % of control
Runx2 | 1 | 65.2 | 72.9
Runx2 | 2 | 68.1 | 75.4
Runx2 | 3 | 93.2 | 84.6
